Results deposited as PubChem BioAssay AID504793 (Drosophila RNAi Screening Center, 2011).

Assay: 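Genes required for cells to halt at G2/M after double-strand DNA breaks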 (primary screen)
Cell system: Drosophila S2R+ cells
Reagent: long dsRNA against Drosophila genes, about 0.25 µg dsRNA per well
Timing: 4 days of dsRNA, then 4 hours of drug before read-out
Treatment: doxorubicin 0.5 µM for 4 hours to cause double-strand breaks, in cells also given a low, harmless dose of dsRNA against nbs to sensitise the assay
Measured: 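Mitotic index as the number of phospho-histone H3-positive cells in each well following doxorubicin, given as raw counts without normalisation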
Reading the numbers: mitotic cells: higher = more cells in mitosis, weaker G2 arrest
Call rule: 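a call needs confirmation in secondary tests, with other dsRNAs and a check of mitotic timing without damage, not just a high primary count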
Calls: active = confirmed in follow-up tests; inactive = not confirmed
The screen tested about 23,000 reagents; below is a random part of those that have a named target and a result. Of all reagents, 62 (0.27%) are marked active. 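Calls come from follow-up tests whose scores are not deposited, so confirmed genes may have low counts here; counts are not normalised per plate.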 Raw values vary from plate to plate and are shown uncorrected. The numbers tell different reagents against one gene apart.

| gene | reagent no. | mitotic cells, replicate 1 | Outcome |
| --- | --- | --- | --- |
| ase (asense) | 1 | 4 | inactive |
| CG11980 | 1 | 4 | inactive |
| Vps52 (Vacuolar protein sorting 52) | 1 | 13 | inactive |
| CG8654 | 1 | 7 | inactive |
| Pde9 (Phosphodiesterase 9) | 1 | 10 | inactive |
| Pde9 (Phosphodiesterase 9) | 2 | 13 | inactive |
| Pde9 (Phosphodiesterase 9) | 3 | 19 | inactive |
| Pde9 (Phosphodiesterase 9) | 4 | 9 | inactive |
| Pde9 (Phosphodiesterase 9) | 5 | 9 | inactive |
| asp (abnormal spindle) | 1 | 8 | inactive |
| CG1791 | 1 | 9 | inactive |
| CG1791 | 2 | 12 | inactive |
| endos (endosulfine) | 1 | 25 | inactive |
| endos (endosulfine) | 2 | 35 | inactive |
| CG18870 | 1 | 6 | inactive |
| CG12617 | 1 | 6 | inactive |
| CG12617 | 2 | 8 | inactive |
| CG18810 | 1 | 3 | inactive |
| SA2 (Stromalin 2) | 1 | 7 | inactive |
| Pms2 | 1 | 4 | inactive |
| CG15143 | 1 | 6 | inactive |
| CG33506 | 1 | 6 | inactive |
| CG8353 | 1 | 8 | inactive |
| CG8353 | 2 | 5 | inactive |
| pyr (pyramus) | 1 | 4 | inactive |
| CR30409 (pseudo) | 1 | 13 | inactive |
| CG6216 | 1 | 8 | inactive |
| CG6216 | 2 | 9 | inactive |
| CG33500 | 1 | 7 | inactive |
| Syx13 (Syntaxin 13) | 1 | – | inactive |
| PH4alphaSG2 (prolyl-4-hydroxylase-alpha SG2) | 1 | 9 | inactive |
| Rop (Ras opposite) | 1 | 4 | inactive |
| Rop (Ras opposite) | 2 | 9 | inactive |
| nonC (no-on-and-no-off transient C) | 1 | 4 | inactive |
| nonC (no-on-and-no-off transient C) | 2 | 8 | inactive |
| Cda4 (Chitin deacetylase-like 4) | 1 | 3 | inactive |
| Cda4 (Chitin deacetylase-like 4) | 2 | 6 | inactive |
| Cda4 (Chitin deacetylase-like 4) | 3 | 4 | inactive |
| AP-1mu (Adaptor Protein complex 1, mu subunit) | 1 | 7 | inactive |
| AP-1mu (Adaptor Protein complex 1, mu subunit) | 2 | 9 | inactive |
| p-cup (presidents-cup) | 1 | 5 | inactive |
| Ms (Myosuppressin) | 1 | 4 | inactive |
| Ms (Myosuppressin) | 2 | 9 | inactive |
| mthl4 (methuselah-like 4) | 1 | 10 | inactive |
| CG11882 | 1 | 8 | inactive |
| CG11882 | 2 | 5 | inactive |
| CG4730 | 1 | 6 | inactive |
| CG4730 | 2 | 10 | inactive |
| Dh31 (Diuretic hormone 31) | 1 | 6 | inactive |
| Arl6 (ADP ribosylation factor-like 6) | 1 | 2 | inactive |
| CG3457 | 1 | 11 | inactive |
| CG3457 | 2 | 4 | inactive |

A run of entries taken from the entries so far, for reference:
| gene | reagent no. | mitotic cells, replicate 1 | Outcome |
| --- | --- | --- | --- |
| Rop (Ras opposite) | 2 | 9 | inactive |
| nonC (no-on-and-no-off transient C) | 1 | 4 | inactive |
| nonC (no-on-and-no-off transient C) | 2 | 8 | inactive |
| Cda4 (Chitin deacetylase-like 4) | 1 | 3 | inactive |
| Cda4 (Chitin deacetylase-like 4) | 2 | 6 | inactive |
| Cda4 (Chitin deacetylase-like 4) | 3 | 4 | inactive |

The list goes on:
| gene | reagent no. | mitotic cells, replicate 1 | Outcome |
| --- | --- | --- | --- |
| CG11444 | 1 | 4 | inactive |
| CG11444 | 2 | 7 | inactive |
| Ucp4C (Uncoupling protein 4C) | 1 | 8 | inactive |
| Ucp4C (Uncoupling protein 4C) | 2 | 2 | inactive |
| NimB2 (Nimrod B2) | 1 | 11 | inactive |
| CG42700 | 1 | 4 | inactive |
| CG42700 | 2 | 21 | inactive |
| CG42700 | 3 | 6 | inactive |
| wdp (windpipe) | 1 | 7 | inactive |
| wdp (windpipe) | 2 | 3 | inactive |
| Rpn13R (Regulatory particle non-ATPase 13-related) | 1 | 18 | inactive |
| Rpn13R (Regulatory particle non-ATPase 13-related) | 2 | 9 | inactive |
| AGBE (1,4-Alpha-Glucan Branching Enzyme) | 1 | 3 | inactive |
| AGBE (1,4-Alpha-Glucan Branching Enzyme) | 2 | 10 | inactive |
| Rbp9 (RNA-binding protein 9) | 1 | 4 | inactive |
| Rbp9 (RNA-binding protein 9) | 2 | 1 | inactive |
| Rbp9 (RNA-binding protein 9) | 3 | 7 | inactive |
| Flo2 (Flotillin 2) | 1 | 5 | inactive |
| Flo2 (Flotillin 2) | 2 | 15 | inactive |
| Bacc (Bacchus) | 1 | 4 | inactive |
| PIG-N (Phosphatidylinositol glycan anchor biosynthesis class N) | 1 | 6 | inactive |
| CG16719 | 1 | 4 | inactive |
| l(3)neo43 (lethal (3) neo43) | 1 | 6 | inactive |
| hig (hikaru genki) | 1 | 3 | inactive |
| hig (hikaru genki) | 2 | 5 | inactive |
| hig (hikaru genki) | 3 | 14 | inactive |
| hig (hikaru genki) | 4 | 6 | inactive |
| CG15012 | 1 | 4 | inactive |
| CG15027 | 1 | 10 | inactive |
| beat-IIIa (beaten path IIIa) | 1 | 6 | inactive |
| beat-IIIa (beaten path IIIa) | 2 | 2 | inactive |
| Cp19 (Chorion protein 19) | 1 | 3 | inactive |
| Cp19 (Chorion protein 19) | 2 | 6 | inactive |
| CG1271 | 1 | 5 | inactive |
| Ance-5 | 1 | 3 | inactive |
| Ance-5 | 2 | 7 | inactive |
| acs (arcus) | 1 | 4 | inactive |
| acs (arcus) | 2 | 4 | inactive |
| Rab4 | 1 | 7 | inactive |
| CG15747 | 1 | 7 | inactive |
| CG15747 | 2 | 6 | inactive |
| fwe (flower) | 1 | 4 | inactive |
| fwe (flower) | 2 | 5 | inactive |
| mnb (minibrain) | 1 | 20 | inactive |
| mnb (minibrain) | 2 | 12 | inactive |
| mnb (minibrain) | 3 | 8 | inactive |
| mnb (minibrain) | 4 | 16 | inactive |
| Ocho | 1 | 4 | inactive |
| Ocho | 2 | 2 | inactive |
| CG11178 | 1 | 10 | inactive |
| CG14966 | 1 | 4 | inactive |
| CG30001 | 1 | 5 | inactive |
| CG6055 | 1 | 10 | inactive |
| CG31220 | 1 | 13 | inactive |
| CG31220 | 2 | 6 | inactive |
| aurB (aurora B) | 1 | 1 | inactive |
| aurB (aurora B) | 2 | 5 | inactive |
| mus304 (mutagen-sensitive 304) | 1 | 22 | active |
